{"source": "patent US10543298B2", "about": "“Salts of tetracyclines” (Hovione Scientia Limited, priority 2015, dated 2020)", "test": "Taste comparison of aqueous solutions against quinine hydrochloride bitter taste standard", "conditions": "aqueous solution 0.5 mg/ml; quinine hydrochloride as bitter taste standard", "note": "Where a name gives a salt, the structure may show the parent alone.", "data": [{"molecule": "CCO.C[C@H]1c2cccc(O)c2C(=O)C2=C(O)[C@]3(O)C(=O)C(C(N)=O)=C(O)[C@@H](N(C)C)[C@@H]3[C@@H](O)[C@@H]21.C[C@H]1c2cccc(O)c2C(=O)C2=C(O)[C@]3(O)C(=O)C(C(N)=O)=C(O)[C@@H](N(C)C)[C@@H]3[C@@H](O)[C@@H]21.Cl.Cl.O", "note": "[Doxycycline Hyclate, reference compound]", "values": [{"measurement": "Taste", "value": "Slightly bitter"}]}, {"molecule": "CC1c2cccc(O)c2C(O)=C2C(=O)C3(O)C(O)=C(C(N)=O)C(=O)C(N(C)C)C3C(O)C21.O=C(O)C=CC(=O)O", "note": "(stereo not shown) [Doxycycline Maleate]", "values": [{"measurement": "Taste", "value": "Slightly bitter, fruit like"}]}, {"molecule": "C[C@H]1c2cccc(O)c2C(=O)C2=C(O)[C@]3(O)C(=O)C(C(N)=O)=C(O)[C@@H](N(C)C)[C@@H]3[C@@H](O)[C@@H]21", "note": "[Doxycycline Monohydrate, reference compound]", "values": [{"measurement": "Taste", "value": "Slightly bitter, almost tasteless"}]}, {"molecule": "C[C@H]1c2cccc(O)c2C(O)=C2C(=O)[C@]3(O)C(O)=C(C(N)=O)C(=O)[C@@H](N(C)C)[C@@H]3[C@@H](O)[C@@H]21.O=C(O)C(=O)O", "note": "[Doxycycline Oxalate]", "values": [{"measurement": "Taste", "value": "Slightly bitter"}]}, {"molecule": "CN(C)c1ccc(O)c2c1C[C@H]1C[C@H]3[C@H](N(C)C)C(O)=C(C(N)=O)C(=O)[C@@]3(O)C(O)=C1C2=O", "note": "[Minocycline Base, 7-dimethylamino-6-demethyl-6-deoxytetracycline, reference compound]", "values": [{"measurement": "Taste", "value": "Almost tasteless, acidic"}]}, {"molecule": "C=C[C@H]1C[N@@]2CC[C@H]1C[C@H]2[C@H](O)c1ccnc2ccc(OC)cc12", "note": "[Quinine hydrochloride, reference compound]", "values": [{"measurement": "Taste", "value": "Bitter"}]}, {"molecule": "CN(C)[C@@H]1C(O)=C(C(N)=O)C(=O)[C@@]2(O)C(O)=C3C(=O)c4c(O)cccc4[C@@](C)(O)[C@H]3C[C@@H]12", "note": "[Tetracycline]", "values": [{"measurement": "Taste", "value": "Almost tasteless"}]}, {"molecule": "Demeclocycline Maleate", "values": [{"measurement": "Taste", "value": "Unpleaseant, oil like"}]}, {"molecule": "Demeclocycline Oxalate", "values": [{"measurement": "Taste", "value": "Bitter, acidic"}]}, {"molecule": "Minocycline Oxalate", "values": [{"measurement": "Taste", "value": "Slightly bitter, citrine like"}]}]}
